1 molecule from paper PMC3040216 can be followed below.

No constants are given. Whether binding was seen depends on the method and setting. In cells and extracts the contact can be indirect. A yes stands for co-enrichment or nearness to the bait. Other partners may have been found. Where a sequence is shown, tags or fusion partners need not be part of it.

This assay has as its target T1, ERFAD-HA (UniProt Q8IWF2).
T1 sequence: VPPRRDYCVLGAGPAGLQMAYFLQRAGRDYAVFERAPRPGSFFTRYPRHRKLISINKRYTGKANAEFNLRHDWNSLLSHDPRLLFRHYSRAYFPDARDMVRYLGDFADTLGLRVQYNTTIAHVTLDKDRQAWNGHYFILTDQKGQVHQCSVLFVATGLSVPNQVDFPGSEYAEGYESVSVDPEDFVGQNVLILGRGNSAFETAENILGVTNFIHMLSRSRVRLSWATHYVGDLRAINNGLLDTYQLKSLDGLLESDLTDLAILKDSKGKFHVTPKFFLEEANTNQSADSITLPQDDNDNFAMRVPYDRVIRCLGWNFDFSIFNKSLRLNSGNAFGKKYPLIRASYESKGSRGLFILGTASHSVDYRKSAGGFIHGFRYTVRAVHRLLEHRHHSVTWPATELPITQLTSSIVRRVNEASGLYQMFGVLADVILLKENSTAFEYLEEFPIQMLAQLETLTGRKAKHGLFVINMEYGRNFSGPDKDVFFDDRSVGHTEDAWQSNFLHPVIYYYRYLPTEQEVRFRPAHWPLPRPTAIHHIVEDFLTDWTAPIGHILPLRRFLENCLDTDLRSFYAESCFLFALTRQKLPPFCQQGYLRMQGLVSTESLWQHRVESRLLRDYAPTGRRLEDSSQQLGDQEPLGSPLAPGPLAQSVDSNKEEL
Description: affinity purification with mass spectrometry; upscaled anti-HA co-IP from A11 cells, EndoH-treated sample, band excised from an SDS-PAGE gel, trypsin digestion, mass spectrometry.

B1: ERp90 (endogenous) (protein, UniProt Q9P2K2 28-825)
chain: LPELSPQKYFSTLQPGKASLAYFCQADSPRTSVFLEELNEAVRPLQDYGISVAKVNCVKEEISRYCGKEKDLMKAYLFKGNILLREFPTDTLFDVNAIVAHVLFALLFSEVKYITNLEDLQNIENALKGKANIIFSYVRAIGIPEHRAVMEAAFVYGTTYQFVLTTEIALLESIGSEDVEYAHLYFFHCKLVLDLTQQCRRTLMEQPLTTLNIHLFIKTMKAPLLTEVAEDPQQVSTVHLQLGLPLVFIVSQQATYEADRRTAEWVAWRLLGKAGVLLLLRDSLEVNIPQDANVVFKRAEEGVPVEFLVLHDVDLIISHVENNMHIEEIQEDEDNDMEGPDIDVQDDEVAETVFRDRKRKLPLELTVELTEETFNATVMASDSIVLFYAGWQAVSMAFLQSYIDVAVKLKGTSTMLLTRINCADWSDVCTKQNVTEFPIIKMYKKGENPVSYAGMLGTEDLLKFIQLNRISYPVNITSIQEAEEYLSGELYKDLILYSSVSVLGLFSPTMKTAKEDFSEAGNYLKGYVITGIYSEEDVLLLSTKYAASLPALLLARHTEGKIESIPLASTHAQDIVQIITDALLEMFPEITVENLPSYFRLQKPLLILFSDGTVNPQYKKAILTLVKQKYLDSFTPCWLNLKNTPVGRGILRAYFDPLPPLPLLVLVNLHSGGQVFAFPSDQAIIEENLVLWLKKLEAGLENHITILPAQEWKPPLPAYDFLSMIDAATSQRGTRKVPKCMKETDVQENDKEQHEDKSAVRKEPIETLRIKHWNRSNWFKEAEKSFRRDKELGCSKVN
modifications: N-glycans (EndoH-sensitive)
For B1, the binding entry is reported as “binds”.
